What is called AC50 is the concentration at which the activity in the assay is half-maximal.

A short description of this experiment: qHTS Assay for Lipid Storage Modulators in Drosophila S3 Cells.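 As to cell number change: cells counted by Cell Tracker Red CMTPX staining in the red channel.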 The note with it: BODIPY lipid droplet fluorescence, 18-24 h; for cell number change: measured here: cell count max response, cells fed with added oleic acid. In a few lines: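 Drosophila S3 cells loaded with oleic acid (400 uM, as added) and compounds at several concentrations; lipid droplets imaged by 488-nm laser-scanning cytometry, 500–530 nm intensity and object ratio to cell channel. Percent activity normalized to 20 uM Triacsin C.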
Background: qHTS replaces the single test concentration by a dilution series.

Where [1] appears, read: measured here: lipid fluorescence (Fed channel) AC50, cells fed with added oleic acid.
Where [2] appears, read: measured here: cell number channel AC50, cells fed with added oleic acid.

The structures appear in SMILES notation. Some of the results follow. Further columns of the screen follow, without active or inactive calls. The list favours compounds with an active or inconclusive main result. Potencies come from curve fits of mixed quality, noted in brackets.

Regarding `CC(C)(C)OC(=O)NC(CNCc1ccccc1)Cc1ccccc1` (configuration not stated), the cell number change is -21%. For the same compound, under setting [1], the AC50 is 1.84 µM [falling, partial curve, poor fit]. `Cc1c(Cl)cccc1NC(=O)[C@@]1(CC(=O)O)CC(/C=C/c2ccccc2)=NO1`: the cell number change came out at 12.4%. For `COc1ccccc1-c1nc(NC(C)=O)n[nH]1`, the cell number change was 3.73%. The AC50 under setting [1] is 0.366 µM [rising, full curve, poor fit]. For `CCOC(=O)Cc1csc(N/N=C\c2ccc(N(C)C)cc2)n1`, the cell number change is -18.1%. Besides, under setting [2], the AC50 is 4.61 µM [falling, single point]. The AC50 under setting [1] is 20.6 µM [rising, partial curve]. For `Cn1c(NCc2ccco2)nc2c1c(=O)n(Cc1ccc(Br)cc1)c(=O)n2C`, the cell number change was -16.7%. Under setting [1], the AC50 was 29.1 µM [falling, single point].

As for `CC(C)C(=O)NC(c1ccccc1Cl)c1c(O)ccc2ccccc12` (configuration not stated), the cell number change was -29.2%. Under setting [1], the AC50 was 29.1 µM [falling, single point]. With `COc1cccc(-c2nc(-c3ccncc3)no2)c1`, the cell number change was 14.4%. Under setting [1], the AC50 was 29.1 µM [rising, single point].

For the compound `O=C(OCC#CCSc1nnc(-c2cccc3ccccc23)o1)c1ccc(Cl)cc1`, the AC50 under setting [1] is 0.164 µM [rising, full curve, poor fit].

In the case of `COc1cc(NC2c3ncccc3C(=O)N2Cc2ccco2)cc(OC)c1` (configuration not stated), the cell number change was -11.7%. As for `CCOC(=O)c1ccc(Nc2nc(C)cc(C)n2)cc1`, the cell number change turned out to be 20.8%. The AC50 under setting [1] was 2.06 µM [rising, full curve, poor fit].

In the case of `O=c1c2ccccc2nc2n1C(CSCc1cccc(C(F)(F)F)c1)CS2` (configuration not stated), the cell number change is -39.5%. In addition, under setting [2], the AC50 was 9.2 µM [falling, partial curve]. For the same compound, the AC50 under setting [1] was 14.6 µM [falling, partial curve]. As to `Cc1cnc(C)c(N2CCN(Cc3nc(-c4ccc(C)o4)oc3C)CC2)n1`, the cell number change amounted to 15.6%. The AC50 under setting [1] was 29.1 µM [rising, single point]. For the compound `COc1ccc(OC)c(NC(=O)C(CC(=O)O)Cc2ccc(Cl)cc2)c1` (configuration not stated), the cell number change was determined as 32.9%.

For the compound `COc1ccc(Cl)cc1N(CC(=O)Nc1ccccc1C(=O)NCc1ccco1)S(C)(=O)=O`, the cell number change came out at 1.52%. Turning to `CC(=O)Nc1cccc(OCc2cnc(Cl)s2)c1`, the cell number change amounted to 2.44%. In addition, the AC50 under setting [1] is 0.116 µM [falling, full curve]. For `Cc1noc(C)c1C(=O)OCC(=O)NC1CCCCC1C` (configuration not stated), the cell number change was -0.214%. Moreover, the AC50 under setting [1] is 0.291 µM [rising, full curve, poor fit].

Consider `Nc1ccc(-n2nnnc2-c2ccco2)cc1`, for which the cell number change worked out at 30.4%. The AC50 under setting [2] is 9.2 µM [rising, partial curve]. Moreover, the AC50 under setting [1] is 7.31 µM [rising, partial curve]. As to `c1ccc(-c2nnc(-c3c[nH]c4ccccc34)nc2-c2ccccc2)cc1`, the cell number change was determined as 1.78%. Regarding `O=C(CNc1ccccc1N1CCCC1=O)Nc1cc(C(F)(F)F)ccc1-n1cncn1`, under setting [1], the AC50 is 0.92 µM [falling, partial curve].

Consider `Cc1ccc(NNC(=O)c2cc(C(C)(C)C)nn2Cc2ccccc2)cc1`, for which the cell number change was -29.7%. Moreover, the AC50 under setting [1] was 29.1 µM [falling, single point]. Turning to `CCc1ccc(Nc2nnc(SCC(=O)c3ccc4c(c3)NC(=O)CO4)s2)cc1`, the cell number change is -35.8%. For the same compound, the AC50 under setting [2] is 0.13 µM [falling, full curve]. Further, the AC50 under setting [1] is 0.116 µM [falling, full curve]. In the case of `CCN1CCCC(CO)(Cc2ccccc2)C1` (configuration not stated), the AC50 under setting [2] is 3.66 µM [falling, single point]. Take `Cc1cc(=O)oc2cc(OCC(=O)N3CCCc4ccccc43)ccc12`: the cell number change is 4.86%. Under setting [1], the AC50 is 5.17 µM [rising, single point]. As for `CCOc1cc(/C=N/Nc2ncnc(Cl)c2N)ccc1O`, the cell number change was found to be 12.3%. Moreover, the AC50 under setting [2] was 0.103 µM [rising, full curve, poor fit]. For the same compound, the AC50 under setting [1] was 29.1 µM [rising, single point]. `O=C(C1CCN(CCCc2ccccc2)CC1)N1CCCCC1`: the cell number change came to 29%. In addition, the AC50 under setting [1] is 0.092 µM [rising, full curve, poor fit].

`CC1CCCC(C)N1/N=C/c1ccccc1OC(F)F` (configuration not stated): the cell number change was -2.58%. Further, the AC50 under setting [2] is 0.259 µM [falling, partial curve, poor fit]. The AC50 under setting [1] was 2.59 µM [falling, single point].

`CC1CN(S(=O)(=O)c2cccc(C(=O)Nc3ccc(S(=O)(=O)NC4=NCCCCC4)cc3)c2)CC(C)O1` (configuration not stated): the cell number change was -35.6%. In addition, the AC50 under setting [2] is 16.4 µM [falling, single point]. The AC50 under setting [1] is 5.8 µM [falling, partial curve]. In the case of `C=CCn1c(C)nnc1SCC(=O)c1c(N)n(C2CC2)c(=O)[nH]c1=O`, the cell number change is -28.1%. Consider `COc1ccc(-c2cn[nH]c2-c2ccc(OCc3ccc(F)cc3)cc2O)cc1OC`, for which the cell number change was -46.7%. Under setting [2], the AC50 is 29.1 µM [falling, single point]. Moreover, the AC50 under setting [1] was 20.6 µM [falling, single point]. For `COc1ccccc1NC(=O)C(C)OC(=O)C(C)SCC(=O)Nc1ccc(C)cc1` (configuration not stated), the cell number change stood at 4.59%. Besides, the AC50 under setting [1] is 0.00461 µM [rising, full curve, poor fit].

`CCC(C)NC(=O)N[C@@H](CCSC)C(=O)OC` (some centres not stated): the cell number change was -19.5%. For the same compound, the AC50 under setting [1] was 1.3 µM [falling, full curve, poor fit].

As for `Cn1c(SCC(=O)Nc2ccc3[nH]c(=O)[nH]c3c2)nnc1-c1ccccc1`, the cell number change came to 8.42%. Besides, the AC50 under setting [1] was 13 µM [rising, partial curve, poor fit]. Consider `c1ccc2nc(-c3nc4ccccc4o3)ccc2c1`, for which the cell number change was -9.78%. Also, under setting [1], the AC50 was 0.00461 µM [falling, full curve, poor fit]. As to `CC(C)c1ccc(NC(=O)c2cc3c(=O)n(C)c4ccccc4c3n2C)cc1`, the cell number change was -2.32%. Turning to `O=C(COc1ccccc1)Nc1c2c(nn1-c1ccc(F)cc1)CS(=O)(=O)C2`, the cell number change was determined as 10%. Also, under setting [1], the AC50 was 4.11 µM [rising, full curve, poor fit]. Consider `O=C(Nc1cccc(C(F)(F)F)c1)c1sc(Cl)nc1C(F)(F)F`, for which, under setting [1], the AC50 is 1.64 µM [falling, full curve]. Regarding `CCOc1ccccc1NC(=O)C1(S(=O)(=O)c2ccc(Cl)cc2)CC1`, the cell number change is -21%. Turning to `O=C(Nc1nnc(C2=COCCO2)o1)c1ccc(F)cc1`, under setting [1], the AC50 is 3.26 µM [falling, partial curve].

`Cc1ccc(S(=O)(=O)Nc2nncs2)cc1`: the cell number change is -38.7%. The concentration at half-maximal activity (AC50) under setting [2] is 6.51 µM [falling, full curve, poor fit]. Also, the AC50 under setting [1] was 2.06 µM [falling, full curve]. Consider `CC(C)C(NS(=O)(=O)c1ccc2c(c1)OCCO2)C(=O)NCCc1ccccn1` (configuration not stated), for which the cell number change is -5.68%. As for `O=C(Nc1ccc2c(c1)OCO2)c1ccc(Cl)nc1`, the cell number change was 50.4%. Further, under setting [2], the AC50 is 11.6 µM [rising, single point]. For the same compound, the half-maximal activity concentration (AC50) under setting [1] is 23.1 µM [rising, single point]. On to `Cc1c(C(=O)NCCSCc2cccc(C(F)(F)F)c2)cnn1-c1ccc(Cl)cc1`, for which the cell number change turned out to be 7.79%. Under setting [1], the AC50 was 0.366 µM [falling, full curve].

Consider `CC(C)c1ccc(N=c2c([N+](=O)[O-])nn(-c3ccc4c(c3)OCCO4)n2O)cc1`, for which the cell number change was -63.8%. Further, the AC50 under setting [2] was 16.4 µM [falling, single point]. `COCCSc1ccccc1C(=O)N1CCCC(C)C1` (configuration not stated): the cell number change amounted to 33%. Moreover, the AC50 under setting [1] is 7.31 µM [falling, single point]. For the compound `CN(CC1CCCN(CCc2ccc(Cl)cc2)C1)C(=O)C(=O)c1ccco1` (configuration not stated), the cell number change stood at 34.2%. The AC50 under setting [2] was 18.4 µM [rising, single point]. For the compound `COc1ccc(N2CCN(C(=O)Cn3nnc(-c4ccc(OC)c(OC)c4)n3)CC2)cc1`, the cell number change was -31.3%. In addition, the AC50 under setting [2] was 29.1 µM [falling, single point]. For the compound `COc1cc(C(=O)Nc2cc(C(F)(F)F)ccc2Cl)cc(OC)c1OC`, the cell number change is -33.7%. In addition, the AC50 under setting [2] is 13 µM [falling, single point]. Under setting [1], the AC50 is 16.4 µM [falling, single point]. For `O=C(CCc1nnc(Cc2ccc3c(c2)OCO3)o1)NC(c1ccccn1)C(F)(F)F` (configuration not stated), the cell number change was -13.2%. As for `CC(C)(C)c1cc(C(=O)N2CCc3ccccc32)ccn1`, the cell number change was -17.1%. Besides, under setting [1], the AC50 was 14.6 µM [rising, single point]. For `C=CCn1c(Cc2c(C)[nH]c3ccccc23)nnc1SCC(=O)NCc1ccc(F)cc1`, the cell number change was -16.1%. Moreover, the AC50 under setting [1] is 29.1 µM [falling, single point]. As for `O=C(CSc1ncnc2scc(-c3ccccc3)c12)NCc1ccc2c(c1)OCO2`, the cell number change was determined as 8.23%. For the same compound, under setting [1], the AC50 is 29.1 µM [falling, single point].

`CC(O)CNC(=O)C1CCN(Cc2ccc(OCc3ccccc3)cc2)CC1` (configuration not stated): the cell number change is 9.26%. Further, under setting [1], the AC50 was 10.3 µM [falling, single point].

For `CCOC(=O)C1CCN(C(=O)CSC2=NCCS2)CC1`, the cell number change is 6.42%.

Take `O=C(CS(=O)(=O)c1ccccc1)Nc1nnc(C(F)(F)F)s1`: the cell number change turned out to be 17.2%. As for `Cc1nc2ccc(NC(=O)c3ccccc3)cc2s1`, the cell number change was -104%. Moreover, under setting [2], the AC50 is 6.51 µM [falling, single point].

For the compound `Cc1cc([N+](=O)[O-])nn1CCCC(=O)N1CCN(c2ccccc2)CC1`, the cell number change was -2.93%. The AC50 under setting [1] was 20.6 µM [rising, single point]. For the compound `CCc1nc(SCC(=O)NCC2CCCO2)c2oc3ccccc3c2n1` (configuration not stated), the cell number change is 3.85%. In addition, the AC50 under setting [1] is 2.59 µM [rising, single point].

For `CCOC(=O)CNC(=O)CNC(=O)c1ccc(OCC(C)C)cc1`, the cell number change is -19.6%. Moreover, under setting [1], the AC50 is 3.26 µM [falling, full curve].

`CC(C)[C@H](NC(=O)c1ccco1)C(=O)OCC(=O)Nc1ccccc1OC(F)F`: the cell number change was determined as 38.5%. In addition, the concentration at half-maximal activity (AC50) under setting [2] is 0.231 µM [rising, full curve, poor fit].

As for `Cc1cccc(Cl)c1OCCCCn1ccnc1`, the cell number change worked out at 25.2%. For the compound `CCCn1c(COc2ccccc2)nc2ccccc21`, the cell number change is 24.6%. Moreover, the AC50 under setting [2] was 0.0461 µM [rising, full curve, poor fit].

Regarding `O=C(c1ccccc1)N1CCC(CC2CC(c3ccc(Cl)cc3)=NO2)(C(=O)NCC2CCCCC2)CC1` (configuration not stated), the cell number change was found to be 3.56%. Under setting [2], the AC50 is 2.31 µM [rising, partial curve, poor fit].

The values above are taken from PubChem BioAssay AID2685 (National Center for Advancing Translational Sciences (NCATS), 2010).
